Results deposited as PubChem BioAssay AID504804 (Drosophila RNAi Screening Center, 2011).
The deposit covers about 19,000 reagents; below is a random part of those with a known target gene and a result. In the full data, 47 (0.25%) are marked active. 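Signals are raw, not normalised; exact z-scores behind calls not deposited; actives needed confirmation, so some wells reaching 2 SD are inactive.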 Reagents against one gene are numbered here.

- Screen: 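Fly genes whose loss lessens doxorubicin-driven cell death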 (primary screen)
- Cells: Drosophila Kc cells
- Reagent: long dsRNA against Drosophila genes, 0.5 µg dsRNA per well
- Timing: 96 h (48 h knock-down, then 48 h drug)
- Conditions: doxorubicin 5 µg/ml for 48 h, added 48 h after dsRNA
- Detection: 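Luminescent ATP counts per replicate, not normalised, reflecting viable cells after 48 h dsRNA knock-down followed by 48 h of 5 µg/ml doxorubicin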
- Scale: raw ATP luminescence: higher = more viable cells, protection from doxorubicin
- Rule for the call: 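Active when both duplicate wells lie at least 2 SD above the plate mean and protection is confirmed by rescreening and independent dsRNAs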

{"predicted target": "CG5381", "reagent no.": 1, "raw ATP luminescence, replicate 1": 48870, "raw ATP luminescence, replicate 2": 59793, "call": "inactive"}
{"predicted target": "Gpb5 (Glycoprotein hormone beta 5)", "reagent no.": 1, "raw ATP luminescence, replicate 1": 2.21e5, "raw ATP luminescence, replicate 2": 2.03e5, "call": "inactive"}
{"predicted target": "Pi3K59F (Phosphatidylinositol 3-kinase 59F)", "reagent no.": 1, "raw ATP luminescence, replicate 1": 56810, "raw ATP luminescence, replicate 2": 67257, "call": "inactive"}
{"predicted target": "CG1603", "reagent no.": 1, "raw ATP luminescence, replicate 1": 69627, "raw ATP luminescence, replicate 2": 51777, "call": "inactive"}
{"predicted target": "CG17010", "reagent no.": 1, "raw ATP luminescence, replicate 1": 78547, "raw ATP luminescence, replicate 2": 65160, "call": "inactive"}
{"predicted target": "Notum", "reagent no.": 1, "raw ATP luminescence, replicate 1": 49963, "raw ATP luminescence, replicate 2": 49507, "call": "inactive"}
{"predicted target": "me31B (maternal expression at 31B)", "reagent no.": 1, "raw ATP luminescence, replicate 1": 78373, "raw ATP luminescence, replicate 2": 60190, "call": "inactive"}
{"predicted target": "CG13461", "reagent no.": 1, "raw ATP luminescence, replicate 1": 81687, "raw ATP luminescence, replicate 2": 68060, "call": "inactive"}
{"predicted target": "Tsp42Ek (Tetraspanin 42Ek)", "reagent no.": 1, "raw ATP luminescence, replicate 1": 47447, "raw ATP luminescence, replicate 2": 70310, "call": "inactive"}
{"predicted target": "CG5382", "reagent no.": 1, "raw ATP luminescence, replicate 1": 37913, "raw ATP luminescence, replicate 2": 39173, "call": "inactive"}

The list goes on; the last 2 above are carried over.
{"predicted target": "Tsp42Ek (Tetraspanin 42Ek)", "reagent no.": 1, "raw ATP luminescence, replicate 1": 47447, "raw ATP luminescence, replicate 2": 70310, "call": "inactive"}
{"predicted target": "CG5382", "reagent no.": 1, "raw ATP luminescence, replicate 1": 37913, "raw ATP luminescence, replicate 2": 39173, "call": "inactive"}
{"predicted target": "sens (senseless)", "reagent no.": 1, "raw ATP luminescence, replicate 1": 19380, "raw ATP luminescence, replicate 2": 22460, "call": "inactive"}
{"predicted target": "svr (silver)", "reagent no.": 1, "raw ATP luminescence, replicate 1": 1.73e5, "raw ATP luminescence, replicate 2": 1.87e5, "call": "inactive"}
{"predicted target": "svr (silver)", "reagent no.": 2, "raw ATP luminescence, replicate 1": 59840, "raw ATP luminescence, replicate 2": 43510, "call": "inactive"}
{"predicted target": "CG32147", "reagent no.": 1, "raw ATP luminescence, replicate 1": 61630, "raw ATP luminescence, replicate 2": 80840, "call": "inactive"}
{"predicted target": "CG14020", "reagent no.": 1, "raw ATP luminescence, replicate 1": 24433, "raw ATP luminescence, replicate 2": 28350, "call": "inactive"}
{"predicted target": "Hsp68 (Heat shock protein 68)", "reagent no.": 1, "raw ATP luminescence, replicate 1": 73890, "raw ATP luminescence, replicate 2": 65180, "call": "inactive"}
{"predicted target": "CG11836", "reagent no.": 1, "raw ATP luminescence, replicate 1": 30110, "raw ATP luminescence, replicate 2": 38310, "call": "inactive"}
{"predicted target": "CG11686", "reagent no.": 1, "raw ATP luminescence, replicate 1": 71800, "raw ATP luminescence, replicate 2": 67770, "call": "inactive"}
{"predicted target": "CG11857", "reagent no.": 1, "raw ATP luminescence, replicate 1": 54550, "raw ATP luminescence, replicate 2": 61020, "call": "inactive"}
